The exact form of at least one protein or probe is not confirmed. For part of these data: At least one verdict rests on a figure or table, not on a statement of the authors.

This note sets out measurements from PMC11922745, “Reconstitution of SPO11-dependent double-strand break formation” (Nature, 2024).

In data set [1] the test system is SPO11 (beta isoform) + TOP6BL. Nature of the data set: EMSA. The conditions noted are these: Hairpin EMSA: 25 mM Tris-HCl pH 7.5, 100 mM NaCl, 5 mM MgCl2, 7.5% glycerol, 2 mM DTT, 1 mg/ml BSA, 0.1 nM DNA, 30 min 30 C, recombinant protein, protein details: N-terminal Flag-TEV,untagged, label: 5'-32P. A general note: In EMSA bound probe runs differently from free probe, usually more slowly.

The subject of data set [2] is SPO11 Y138F + SPO11 E224A + TOP6BL. Briefly: gel of covalent complex with or without proteinase K. The conditions noted are these: 5 mM Mn2+, 5 nM of each mutant complex, SPO11 covalently bound to nicked DNA; covalently closed circle (ligated); recombinant protein; protein details: N-terminal Flag-TEV,N-terminal Flag-TEV,untagged; label: 32P (5' labelled, then ligated); folded or branched DNA.

Take “TAGCAATGTAATCGTCTATGACG / TACGTCATAGACGATTACATTGC [21 bp double-overhang duplex]”: in data set [1] (double-end binding largely or completely restored at higher protein), the binding result is “binds”. Turning to “TAGCAATGTAATCGTCTATGACGTGATAGCGC / TAGCGCTATCACGTCATAGACGATTACATTGC [30 bp double-overhang duplex]”, the binding result in data set [1] (double-end binding) is recorded as “binds”. The same measure, in the same setting: the same measure for “TAGCAATGTAATCGTCTATGACGTGTAGCGC / TAGCGCTACACGTCATAGACGATTACATTGC [29 bp double-overhang duplex]”: “binds”; for “TAGCAATGTAATCGTCTATGACGTGTCATAGCGC / TAGCGCTATGACACGTCATAGACGATTACATTGC [32 bp double-overhang duplex]”: “binds”.

On to “CGGTTCAAAAGAACCGGAGCTGAATGAAGCCATACCAAACGACGAGCGTGACACAAAAGTGTCACGCTCGTCGTTTGGTATGGCTTCATTCAGCTC”, for which the binding result in data set [2] is listed as “binds”. Take “TAGCAATGTAATCGTCTATGACGTGCATAGCGC / TAGCGCTATGCACGTCATAGACGATTACATTGC [31 bp double-overhang duplex]”: the binding result in data set [1] (double-end binding) is recorded as “binds”.
